System: HT-29 xenografts harbouring a knock-down for CA IX
Settings: single treatment

CC(=O)Nc1nnc(S(N)(=O)=O)s1 [AZA, Acetazolamide]
therapeutic effect on CA IX shRNA (KD) tumors: demonstrated also an effect on the KD tumors
